According to PMC7842900:
No constants are given. Whether binding was seen depends on the method and setting. In cells and extracts the contact can be indirect. Binding calls can cover weak binding; strength is not graded here. Where a sequence is shown, tags or fusion partners need not be part of it.

B1: 6×His-AvrAC (protein, UniProt Q4UWF4 1-536)
chain: MDKNLNLWDMSTFIQQYGALTADHPTHTPEDSPQTVPSPRSSSAHSPEIQELRSLQETRPARLGARSQSRSSKHGLQQCSSSPSDESFRLHAELAAWCERVETKPSLLAKLGCCAAPPVVGDHREQRREAMERIMRCLDAGQAGTQLTLRDLNLSQLPPGLHRLAHLRDLDVADNVNLTRLPEDLSLCKHLERINADGCSIAALPSKIGALKNLSEISLAFNELRTLPDSIGQCSSLTTIVVPGCKINKLPASLANLTQLKKLDVAANIELSELSPHMNLDDVAVHSTQTRLGLMHRIFKAPTFDPETRQRLSYQASALRDRWAALSHHLSPQARARVDQMREGASTTLSSQDHKASTAWKTATEKVSSWAEEGAPITLDRIFKLNQLLLPEGDDDNDPIGGQLRKVGIQAAPSNTWTECRYPPPETLKDEMAKFSGWLEHSEQQAHARDALGHIEFAAQLHQRLVSLHPFDDANGRTARLAMDWALQRHGLPPAPPVGEASRLPASFLGGKRVSPEKVVLETLEGIATVMNQVHQ

Experiments:
[1] = target: T1, GST-HpaB_(85-160) (Xanthomonas campestris pv. campestris) (UniProt B0RX82); assay: pull-down; GST or GST-fused HpaB derivatives from soluble E. coli lysate immobilised on MagneGST particles; incubated with E. coli lysates of 6×His-tagged prey 30 min at room temperature or overnight at 4°C; 20 mM Tris, 150 mM NaCl, 0.05% Triton-100, pH 8.0; immunoblot with anti-His and anti-GST; only the target purified
T1 sequence: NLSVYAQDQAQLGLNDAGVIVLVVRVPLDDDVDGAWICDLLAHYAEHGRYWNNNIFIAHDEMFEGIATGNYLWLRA

[2] = target: T2, GST-HpaB_(137-160) (Xanthomonas campestris pv. campestris) (UniProt B0RX82); assay: as above
T2 sequence: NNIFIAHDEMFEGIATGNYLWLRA

[3] = target: T3, GST-HpaB_(111-160) (Xanthomonas campestris pv. campestris) (UniProt B0RX82); assay: as above
T3 sequence: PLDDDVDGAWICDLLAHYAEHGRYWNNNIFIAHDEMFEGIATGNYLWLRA

[4] = target: GST-HpaB (Xanthomonas campestris pv. campestris); assay: pull-down; chaperone release assay: GST-fused HpaB derivatives immobilised on MagneGST particles, incubated with 6×His-tagged T3E to form the complex, unbound protein removed; then 1 h at room temperature with 150 μM ATP, with or without 1 μg purified 6×His-HrcN; supernatant and particles immunoblotted

| Molecule | binding [1] | binding [2] | binding [3] | binding [4] |
| --- | --- | --- | --- | --- |
| 6×His-AvrBs1 (Xanthomonas campestris pv. campestris) | binds | no binding | binds |  |
| 6×His-HpaB_(1-144) (Xanthomonas campestris pv. campestris) (domain or fragment) | binds | no binding | binds |  |
| 6×His-HpaA (Xanthomonas campestris pv. campestris) | binds | binds weakly | binds |  |
| Trx-6×His-HpaB (Xanthomonas campestris pv. campestris) | binds | no binding | binds |  |
| B1 |  |  |  | binds |
